Source: paper PMC7674511
Results are given in words; binding and its absence hold for the method and conditions named. Binding calls can cover weak binding; strength is not graded here. Where a sequence is shown, tags or fusion partners need not be part of it.

Molecular target: GST-AMFRΔTM
Assay: pull-down; in vitro GST pulldown: recombinant GST-AMFRΔTM with recombinant His-MYC-TXN (Figure S3C); both purified

B1: His-MYC-TXN (protein, UniProt P10599 1-105)
chain: MVKQIESKTAFQEALDAAGDKLVVVDFSATWCGPCKMIKPFFHSLSEKYSNVIFLEVDVDDCQDVASECEVKCMPTFQFFKKGQKVGEFSGANKEKLEATINELV
binding: binds
